Results as given in paper PMC11705955, “Lack of activity of HIV-1 integrase strand-transfer inhibitors on recombinase activating gene (RAG) activity at clinically relevant concentrations” (Microbiology Spectrum, 2024).
Results are given in words; binding and its absence hold for the method and conditions named.

Amino acid sequences for entries named in this document (tags omitted). Residues count along the entry.
UniProt P09429, residues 1-163: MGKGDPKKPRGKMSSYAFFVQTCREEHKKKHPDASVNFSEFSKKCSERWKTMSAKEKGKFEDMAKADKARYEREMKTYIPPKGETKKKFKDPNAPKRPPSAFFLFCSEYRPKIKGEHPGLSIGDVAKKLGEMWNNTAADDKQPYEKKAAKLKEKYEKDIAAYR

Target: human HMGB1 (AA1-163) (human) (UniProt P09429)
Experiment: SEC-MALS; Superdex 200 Increase 5/150 GL, 25-mM HEPES (pH 7.0), 100-mM KCl, 2-mM DTT, 0.1-mM EDTA, 0.3 mL/min, room temperature; 1.37 µg/µL in 55 µL applied; both purified

For “human HMGB1 (AA1-163) (from UniProt P09429 1-163) (domain or fragment)”, the binding was “no binding (tested: 1.37 µg/µL)”.
